# Experimental data published in patent publication US20250263370A1 (Tay Therapeutics Limited, priority 2022, published 2025).
# Where “and” joins values, the source holds several entries; their conditions need not be identical. Identical values can stand only once. Further values from the same series stand in other lists.
# Test system: collagen-induced arthritis
# Assay: Collagen-induced arthritis (CIA) model in rats: body weight, paw volume, clinical scores, clinical observations; on Detailed Clinical Scores: left forelimb: key of the grades not given here; on Detailed Clinical Scores: left hind limb: key of the grades not given here; on Detailed Clinical Scores: right forelimb: key of the grades not given here; on Detailed Clinical Scores: right hind limb: key of the grades not given here; on Detailed Clinical Scores: score: key of the grades not given here; on Overall clinical score: key of the grades not given here
# Settings: for Animal paw volume percent change: individual animals; for Overall clinical score / Detailed Clinical Scores: left forelimb / Detailed Clinical Scores: right forelimb / Detailed Clinical Scores: score / Detailed Clinical Scores: left hind limb / Detailed Clinical Scores: right hind limb: CIA rats; for Overall clinical score: individual animals #1-8; for Detailed Clinical Scores: left forelimb / Detailed Clinical Scores: right forelimb / Detailed Clinical Scores: score / Detailed Clinical Scores: left hind limb / Detailed Clinical Scores: right hind limb: individual animals ID 1-8
smiles,measurement,setting,value
"CNC(=O)c1[nH]c(C(=O)NC2CCC2)cc1O[C@@H](C)c1ccccc1 (stereo in doubt) [Example 101, N^5-cyclobutyl-N^2-methyl-3-(1-phenylethoxy)-1H-pyrrole-2,5-dicarboxamide]",Animal paw volume percent change,"Day 15, R paw, 3 mg/kg",18.91%
same,Animal paw volume percent change,"Day 15, R paw, 10 mg/kg",10.26% and 20.72%
same,Animal paw volume percent change,"Day 15, R paw, 30 mg/kg",13.86% and 4.98% and 28.35% and 3.66% and 14.23% and 3.42% and 31.56% and −3.00%
same,Overall clinical score,"Day 15, 10 mg/kg",6 and 0 and 1 (2×) and 2
same,Overall clinical score,"Day 15, 30 mg/kg",1 and 2 (3×) and 0 (4×)
same,Animal paw volume percent change,"Day 18, L paw, 3 mg/kg",63.47%
same,Animal paw volume percent change,"Day 18, L paw, 10 mg/kg",20.15% and 19.44%
same,Animal paw volume percent change,"Day 18, L paw, 30 mg/kg",9.81% and 55.51% and 43.02% and 11.41% (2×) and 28.24% and 48.65% and 26.97%
same,Animal paw volume percent change,"Day 18, R paw, 3 mg/kg",96.73%
same,Animal paw volume percent change,"Day 18, R paw, 10 mg/kg",15.38% and 19.92%
same,Animal paw volume percent change,"Day 18, R paw, 30 mg/kg",12.73% and 42.91% and 42.53% and 2.90% and 13.46% and 0.00% and 48.29% and 25.47%
same,Detailed Clinical Scores: left forelimb,"Day 18, 3 mg/kg",4
same,Detailed Clinical Scores: right forelimb,"Day 18, 3 mg/kg",4
same,Detailed Clinical Scores: score,"Day 18, 3 mg/kg",8 (4×) and 12 (2×)
same,Detailed Clinical Scores: left forelimb,"Day 18, 10 mg/kg",0
same,Detailed Clinical Scores: left hind limb,"Day 18, 10 mg/kg",4 (4×) and 3 and 0 (2×) and 1
same,Detailed Clinical Scores: right forelimb,"Day 18, 10 mg/kg",0 (6×) and 4 and 3
same,Detailed Clinical Scores: right hind limb,"Day 18, 10 mg/kg",3 (2×) and 4 (2×) and 1 (2×) and 2 and 0
same,Detailed Clinical Scores: score,"Day 18, 10 mg/kg",7 and 6 (2×) and 12 and 11 and 1 and 2 and 0
same,Detailed Clinical Scores: left forelimb,"Day 18, 30 mg/kg",0
same,Detailed Clinical Scores: left hind limb,"Day 18, 30 mg/kg",0 (3×) and 3 and 2 (2×) and 1 (2×)
same,Detailed Clinical Scores: right forelimb,"Day 18, 30 mg/kg",0
same,Detailed Clinical Scores: right hind limb,"Day 18, 30 mg/kg",0 (4×) and 2 (3×) and 1
same,Detailed Clinical Scores: score,"Day 18, 30 mg/kg",0 (3×) and 5 and 4 (2×) and 1 and 2
same,Overall clinical score,"Day 18, 10 mg/kg",11 and 1 and 2 and 0
same,Overall clinical score,"Day 18, 30 mg/kg",0 (3×) and 5 and 4 (2×) and 1 and 2
same,Animal paw volume percent change,"Day 19, L paw, 3 mg/kg",105.54%
same,Animal paw volume percent change,"Day 19, L paw, 10 mg/kg",78.08% and 20.51% and 26.59%
same,Animal paw volume percent change,"Day 19, L paw, 30 mg/kg",6.79% and 55.13% and 55.09% and 18.25% and 17.49% and 41.22% and 49.42% and 24.72%
same,Animal paw volume percent change,"Day 19, R paw, 3 mg/kg",100.36%
same,Animal paw volume percent change,"Day 19, R paw, 10 mg/kg",42.91% and 14.65% and 23.90%
same,Animal paw volume percent change,"Day 19, R paw, 30 mg/kg",7.49% and 49.81% and 63.60% and 4.41% and 13.46% and 38.78% and 55.13% and 26.22%
same,Detailed Clinical Scores: left forelimb,"Day 19, 3 mg/kg",4
same,Detailed Clinical Scores: right forelimb,"Day 19, 3 mg/kg",4
same,Detailed Clinical Scores: score,"Day 19, 3 mg/kg",8 (2×) and 16 and 12 (2×)
same,Detailed Clinical Scores: left forelimb,"Day 19, 10 mg/kg",0
same,Detailed Clinical Scores: left hind limb,"Day 19, 10 mg/kg",3 (3×) and 4 (2×) and 0 and 1 (2×)
same,Detailed Clinical Scores: right forelimb,"Day 19, 10 mg/kg",1 (2×) and 0 (4×) and 4 and 3
same,Detailed Clinical Scores: right hind limb,"Day 19, 10 mg/kg",3 (3×) and 4 (2×) and 2 (3×)
same,Detailed Clinical Scores: score,"Day 19, 10 mg/kg",7 (2×) and 6 and 12 and 11 and 2 and 3 (2×)
same,Detailed Clinical Scores: left forelimb,"Day 19, 30 mg/kg",0
same,Detailed Clinical Scores: left hind limb,"Day 19, 30 mg/kg",0 and 3 (2×) and 1 (3×) and 2 (2×)
same,Detailed Clinical Scores: right forelimb,"Day 19, 30 mg/kg",0 (6×) and 1 (2×)
same,Detailed Clinical Scores: right hind limb,"Day 19, 30 mg/kg",0 (3×) and 3 (4×) and 2
same,Detailed Clinical Scores: score,"Day 19, 30 mg/kg",0 and 6 (2×) and 7 and 1 (2×) and 5 and 3
same,Overall clinical score,"Day 19, 10 mg/kg",11 and 2 and 3 (2×)
same,Overall clinical score,"Day 19, 30 mg/kg",0 and 6 (2×) and 7 and 1 (2×) and 5 and 3
same,Animal paw volume percent change,"Day 21, L paw, 3 mg/kg",111.44%
same,Animal paw volume percent change,"Day 21, L paw, 10 mg/kg",78.85% and 33.70% and 26.59%
same,Animal paw volume percent change,"Day 21, L paw, 30 mg/kg",7.55% and 57.79% and 58.87% and 16.73% (2×) and 56.87% and 64.09% and 24.72%
same,Animal paw volume percent change,"Day 21, R paw, 3 mg/kg",101.09%
same,Animal paw volume percent change,"Day 21, R paw, 10 mg/kg",64.75% and 32.97% and 28.69%
same,Animal paw volume percent change,"Day 21, R paw, 30 mg/kg",6.74% and 60.54% and 65.13% and 5.16% and 12.69% and 52.09% and 61.22% and 25.09%
same,Detailed Clinical Scores: left forelimb,"Day 21, 3 mg/kg",1 and 0 (5×) and 3 and 4
same,Detailed Clinical Scores: left hind limb,"Day 21, 3 mg/kg",4
same,Detailed Clinical Scores: right forelimb,"Day 21, 3 mg/kg",0 (5×) and 3 and 1 and 4
same,Detailed Clinical Scores: right hind limb,"Day 21, 3 mg/kg",4 (6×) and 3 (2×)
same,Detailed Clinical Scores: score,"Day 21, 3 mg/kg",9 and 7 (2×) and 8 (2×) and 14 and 13 and 12
same,Detailed Clinical Scores: left forelimb,"Day 21, 10 mg/kg",0
same,Detailed Clinical Scores: left hind limb,"Day 21, 10 mg/kg",3 (3×) and 4 (2×) and 0 and 2 and 1
same,Detailed Clinical Scores: right forelimb,"Day 21, 10 mg/kg",1 (2×) and 0 (4×) and 4 (2×)
same,Detailed Clinical Scores: right hind limb,"Day 21, 10 mg/kg",3 (3×) and 4 (2×) and 2 (2×) and 1
same,Detailed Clinical Scores: score,"Day 21, 10 mg/kg",7 (2×) and 6 and 12 (2×) and 2 (2×) and 4
same,Detailed Clinical Scores: left forelimb,"Day 21, 30 mg/kg",0
same,Detailed Clinical Scores: left hind limb,"Day 21, 30 mg/kg",0 and 3 (4×) and 1 (3×)
same,Detailed Clinical Scores: right forelimb,"Day 21, 30 mg/kg",0 (7×) and 1
same,Detailed Clinical Scores: right hind limb,"Day 21, 30 mg/kg",0 (3×) and 3 (4×) and 1
same,Detailed Clinical Scores: score,"Day 21, 30 mg/kg",0 and 6 (3×) and 7 and 1 (2×) and 2
same,Overall clinical score,"Day 21, 10 mg/kg",2 (2×) and 4
same,Overall clinical score,"Day 21, 30 mg/kg",0 and 6 (3×) and 7 and 1 (2×) and 2
